In PMC13426208:
No constants are given. Whether binding was seen depends on the method and setting. Binding seen in cells or lysates may run through a third protein. Some results given as binding are weak or reduced against the parent protein; the word gives no strength.

Sequences of proteins named here, by UniProt entry; tags and fusion partners are left off.
UniProt O00139: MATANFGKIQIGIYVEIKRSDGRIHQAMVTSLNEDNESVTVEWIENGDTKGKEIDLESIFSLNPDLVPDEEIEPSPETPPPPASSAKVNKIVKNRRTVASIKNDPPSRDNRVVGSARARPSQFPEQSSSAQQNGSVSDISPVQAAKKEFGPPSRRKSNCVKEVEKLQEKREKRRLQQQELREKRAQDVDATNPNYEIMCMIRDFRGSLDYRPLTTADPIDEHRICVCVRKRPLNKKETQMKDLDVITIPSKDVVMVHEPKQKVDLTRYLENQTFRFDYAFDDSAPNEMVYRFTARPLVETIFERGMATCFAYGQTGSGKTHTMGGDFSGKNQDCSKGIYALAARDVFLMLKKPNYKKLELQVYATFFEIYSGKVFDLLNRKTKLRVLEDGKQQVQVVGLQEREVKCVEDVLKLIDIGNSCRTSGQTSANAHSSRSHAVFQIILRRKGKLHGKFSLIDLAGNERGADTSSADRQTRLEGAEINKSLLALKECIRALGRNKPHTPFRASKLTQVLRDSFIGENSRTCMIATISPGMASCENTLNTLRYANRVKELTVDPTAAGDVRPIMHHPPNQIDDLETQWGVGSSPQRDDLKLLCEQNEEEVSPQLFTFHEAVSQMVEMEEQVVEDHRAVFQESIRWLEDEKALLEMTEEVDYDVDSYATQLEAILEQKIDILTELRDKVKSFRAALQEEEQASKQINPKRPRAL

Molecular target: T1, NAT10 acetyltransferase (human (endogenous in iPSC-derived neurons)) (UniProt Q9H0A0)
T1 sequence: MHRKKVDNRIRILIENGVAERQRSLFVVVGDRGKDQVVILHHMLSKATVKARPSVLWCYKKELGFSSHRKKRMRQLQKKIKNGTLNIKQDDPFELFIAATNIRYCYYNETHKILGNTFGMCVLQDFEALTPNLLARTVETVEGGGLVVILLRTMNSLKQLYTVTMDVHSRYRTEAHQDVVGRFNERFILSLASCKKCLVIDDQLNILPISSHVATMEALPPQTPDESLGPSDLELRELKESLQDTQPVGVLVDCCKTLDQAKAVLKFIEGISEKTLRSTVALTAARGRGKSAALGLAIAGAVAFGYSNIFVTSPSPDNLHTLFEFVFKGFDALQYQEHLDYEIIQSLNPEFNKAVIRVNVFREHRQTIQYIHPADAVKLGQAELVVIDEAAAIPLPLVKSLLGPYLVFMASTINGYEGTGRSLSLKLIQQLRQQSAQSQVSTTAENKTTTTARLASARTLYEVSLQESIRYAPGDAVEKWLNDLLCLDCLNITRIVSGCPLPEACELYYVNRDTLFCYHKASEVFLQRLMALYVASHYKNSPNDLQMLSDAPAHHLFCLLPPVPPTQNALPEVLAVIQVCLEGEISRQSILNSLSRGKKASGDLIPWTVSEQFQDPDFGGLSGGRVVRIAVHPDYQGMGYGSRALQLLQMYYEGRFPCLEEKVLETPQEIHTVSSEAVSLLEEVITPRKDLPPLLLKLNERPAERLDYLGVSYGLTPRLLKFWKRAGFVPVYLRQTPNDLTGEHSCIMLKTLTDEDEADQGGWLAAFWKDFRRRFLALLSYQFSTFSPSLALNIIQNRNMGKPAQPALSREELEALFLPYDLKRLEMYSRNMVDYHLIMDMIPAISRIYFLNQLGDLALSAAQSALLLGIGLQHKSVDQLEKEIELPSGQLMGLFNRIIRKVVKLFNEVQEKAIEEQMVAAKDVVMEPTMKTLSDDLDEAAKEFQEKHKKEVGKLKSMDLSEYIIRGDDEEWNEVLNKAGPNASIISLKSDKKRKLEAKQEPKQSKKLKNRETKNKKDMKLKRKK
Assay: co-IP; 1 mg of total protein (RIPA extract) of FTD-MAPT or control neurons immunoprecipitated with polyclonal anti-NAT10 antibody or normal rabbit IgG; western blot for KIF2A and ARHGEF2

Question: Which binding does the source give for “kinesin KIF2A (from UniProt O00139 1-706)” here?
Answer: binds
